Measurements reported in patent publication US11505523B2, “HDAC8 inhibitors for treating cancer” (City of Hope, priority 2013, dated 2022).

Legend:
CL1-5 cells = assay: Cytotoxicity / anti-proliferative activity in CL1-5 lung cancer cells; conditions: read-out: Cytotoxicity IC50 Cl1-5; mean SD of three determinations
Cl1-1 cells = assay: Cytotoxicity / anti-proliferative activity in CL1-1 lung cancer cells; conditions: read-out: Cytotoxicity IC50 Cl1-1; mean SD of three determinations
H1299 cells = assay: Cytotoxicity / anti-proliferative activity in H1299 lung cancer cells; conditions: read-out: Cytotoxicity IC50 H1299; mean SD of three determinations

`O=C(CCCCCCC(=O)Nc1ccccc1)NO` [SAHA, reference compound] gave an IC50 (CL1-5 cells) of 6.2 ± 0.6 nM, an IC50 (Cl1-1 cells) of 2.9 ± 0.5 nM and an IC50 (H1299 cells) of 4.9 ± 0.3 nM.
